Results deposited as PubChem BioAssay AID652243 (Drosophila RNAi Screening Center, 2013).
Aim: 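Fly genes required for human androgen receptor driven transcription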 (primary screen). Cells: Drosophila S2R+ cells. Reagent: long dsRNA against Drosophila genes. Time to read-out: 72 h (48 h, then 24 h hormone). Treatment: synthetic androgen R1881 at 10 nM for 24 h. Measured: 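Firefly light from an androgen-responsive reporter and Renilla control light per well, raw and unnormalised, for each of two replicates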. Reading the numbers: firefly reporter light: higher = more light from androgen-responsive reporter; Renilla control light: higher = more constitutive control signal (cell number, transfection). Active means: 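Hit when the log firefly-to-Renilla ratio dropped or increased by a fixed fold versus the mean of GFP or LacZ controls across duplicate plates; lowering cut given as 1.5 and as 3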. Meaning of the calls: active = hit: reporter lowered or raised; inactive = no hit.
The screen tested about 24,000 reagents; shown is an unselected part of those with a known target gene and a result. Of all reagents, 246 (1%) are marked active. 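Plates not normalised; calls are printed but the firefly/Renilla ratio behind them is not deposited; fold cut for lowering reported inconsistently.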 The raw values are shown without normalisation. Names joined by + are all predicted targets of the reagent. Not given: the amount of reagent.

no.	gene	dsRNA	firefly reporter light, replicate 1	firefly reporter light, replicate 2	Renilla control light, replicate 1	Renilla control light, replicate 2	call
1	RpS27A	DRSC03421	2.17e5	2.69e5	1.40e6	1.55e6	inactive
2	RpS27A	DRSC30047	5.04e5	3.24e5	1.07e6	1.22e6	inactive
3	CG10469	DRSC09729	1.11e5	1.01e5	1.54e6	2.05e6	inactive
4	CG10469	DRSC25644	1.28e6	9.56e5	1.17e6	1.12e6	inactive
5	Rsph4a	DRSC04338	9.09e5	7.13e5	7.86e5	1.02e6	inactive
6	Rsph4a	DRSC28287	8.82e5	1.25e6	1.33e6	2.02e6	inactive
7	Ada2a + Polr2D	DRSC16206	38798	51273	6.11e5	7.25e5	inactive
8	Ada2a + Polr2D	DRSC21598	1.19e6	1.12e6	2.67e6	3.14e6	inactive
9	RpL32	DRSC16835	51313	66452	8.57e5	1.23e6	inactive
10	RpL32	DRSC27164	1.52e5	1.55e5	3.89e5	4.17e5	inactive
11	CG18537	DRSC06764	1.06e5	2.33e5	1.69e6	1.69e6	inactive
12	CG18537	DRSC29847	1.11e6	9.03e5	1.65e6	1.71e6	inactive
13	esg	DRSC03530	1.67e5	2.14e5	1.49e6	2.02e6	inactive
14	CG13531	DRSC04173	3.28e5	3.37e5	1.64e6	1.46e6	inactive
15	fzr	DRSC18781	4.49e5	4.63e5	2.01e6	2.27e6	inactive
16	fzr	DRSC28236	3.91e5	7.57e5	8.56e5	1.27e6	inactive
17	CheB38a	DRSC03205	4.39e5	4.85e5	2.43e6	3.22e6	inactive
18	CheB38a	DRSC29814	4.68e5	3.30e5	1.44e6	1.62e6	inactive
19	melt	DRSC11367	2.00e5	1.88e5	2.66e6	2.58e6	inactive
20	CG13362	DRSC17897	1.64e5	1.99e5	1.67e6	1.45e6	inactive
21	CG13362	DRSC25324	9.25e5	7.27e5	1.32e6	1.08e6	inactive
22	DIP-theta	DRSC00885	4.26e5	3.28e5	2.02e6	2.47e6	inactive
23	DIP-theta	DRSC02340	1.69e5	1.55e5	1.50e6	1.01e6	inactive
24	CG9072	DRSC20147	2.06e5	3.06e5	2.47e6	2.84e6	inactive
25	aralar1	DRSC13987	2.08e6	1.42e6	3.71e6	1.67e6	inactive
26	aralar1	DRSC16901	1.23e5	89990	5.09e5	4.41e5	inactive
27	aralar1	DRSC29693	4.60e5	4.01e5	9.84e5	1.46e6	inactive
28	CG13042	DRSC09923	3.67e5	2.90e5	3.13e6	2.42e6	inactive
29	CG13042	DRSC28618	3.99e5	2.96e5	1.57e6	1.59e6	inactive
30	CG8757	DRSC11039	1.81e5	1.92e5	2.35e6	2.00e6	inactive
31	CG8757	DRSC24587	5.29e5	1.03e6	9.27e5	1.28e6	inactive
32	SRPK	DRSC07090	1.11e6	9.20e5	1.94e6	2.09e6	inactive
33	SRPK	DRSC28162	4.84e5	6.76e5	1.10e6	1.23e6	inactive
34	SRPK	DRSC36776					inactive
35	CG16964	DRSC02546	2.96e5	2.62e5	1.54e6	1.88e6	inactive
36	CG16964	DRSC26799	4.73e5	4.64e5	6.60e5	4.93e5	inactive
37	CG5421	DRSC02858	1.59e5	2.22e5	1.10e6	1.35e6	inactive
38	CG5421	DRSC24636	9.54e5	1.19e6	1.01e6	9.60e5	inactive
39	jigr1	DRSC15233	2.85e5	2.44e5	3.41e6	2.81e6	inactive
40	jigr1	DRSC22617	5.02e5	6.71e5	1.80e6	1.44e6	inactive
41	Sec6	DRSC06932	9.40e5	9.88e5	1.76e6	1.75e6	inactive
42	CG31199	DRSC15284	1.06e5	1.43e5	6.83e5	1.07e6	inactive
43	Col4a1	DRSC03291	1.04e6	1.10e6	2.18e6	2.35e6	inactive
44	CG5181	DRSC02825	6.69e5	8.38e5	1.30e6	1.27e6	inactive
45	Nmda1	DRSC07479	1.28e6	1.08e6	1.77e6	1.58e6	inactive
46	Nmda1	DRSC26357	2.78e5	2.96e5	4.64e5	4.53e5	inactive
47	Smyd4-1	DRSC06785	1.28e6	9.74e5	2.32e6	1.82e6	inactive
48	Smyd4-1	DRSC27142	2.18e5	1.81e5	6.20e5	7.49e5	inactive
49	CG14630	DRSC18166	1.04e5	1.09e5	2.32e6	2.57e6	inactive
50	CG14630	DRSC18653	1.38e5	1.40e5	2.75e6	2.20e6	inactive
51	mi	DRSC04498	3.89e5	1.63e5	1.35e6	5.70e5	inactive
52	mi	DRSC29425	2.00e5	3.25e5	6.30e5	6.30e5	inactive
53	CG32945	DRSC12014	1.67e5	1.58e5	3.67e5	2.32e5	inactive
54	CG13898	DRSC08368	1.66e5	1.24e5	1.58e6	1.67e6	inactive
55	CG34026	DRSC38799	6.68e5	7.15e5	1.81e6	1.65e6	inactive
56	CheA46a	DRSC38883	9.59e5	9.15e5	2.49e6	1.99e6	inactive
57	CG5116	DRSC15720	3.40e5	5.37e5	3.29e6	4.39e6	inactive
58	Nufip	DRSC10397	97682	50308	6.42e5	3.25e5	inactive

Entries above whose target name begins with M or m:
gene	dsRNA	firefly reporter light, replicate 1	firefly reporter light, replicate 2	Renilla control light, replicate 1	Renilla control light, replicate 2	call
melt	DRSC11367	2.00e5	1.88e5	2.66e6	2.58e6	inactive
mi	DRSC04498	3.89e5	1.63e5	1.35e6	5.70e5	inactive
mi	DRSC29425	2.00e5	3.25e5	6.30e5	6.30e5	inactive
